From patent US20030219494A1, “Compositions and methods of using them” (priority 2002, published 2003)

Legend:
[1] = system: mechanical allodynia in STZ-diabetic DA rats; assay: von Frey antinociception (relief of mechanical allodynia) after single s.c. opioid in STZ-diabetic DA rats, standard chow or dietary L-arginine
Procedure: Deep and stable anaesthesia was induced with a mixture of ketamine (100 mg/kg, i.p.) and xylazine (16 mg/kg, i.p.) to facilitate insertion of a polyethylene cannula (previously filled with 0.1 ml of sterile saline) into the right common jugular vein. Jugular vein cannulae were tested for correct placement by the withdrawal of a small amount of blood. Diabetes was induced following an acute i.v. injection of streptozotocin (STZ) (85 mg/kg) in 0.1 M citrate buffer (pH 4.5) into the jugular vein.
Naïve non-diabetic rats (n=36) were used in the control experiments. Following STZ administration, benzylpenicillin (60 mg, s.c.) was administered to prevent infection and rats were monitored closely during surgical recovery. Rats were then housed singly or in pairs for period of 3 wks to 38 wks, depending upon the study cohort to which they belonged.
(§1) Multiple aliquots of these stock solutions were stored at −20° C. until required. […] Whilst under light anaesthesia with CO2/O2 (50:50%), rats received a single s.c. injection (100 μL) of one opioid or vehicle (saline) into the dorsal region of the base of the neck, using a 250 μL Hamilton syringe.
Mechanical allodynia, the distinguishing feature of diabetic neuropathic pain, was quantified using von Frey filaments. Rats were placed in a metabolic cage (20 cm×20 cm×20 cm) with a metal mesh floor and allowed to acclimatise for approximately 10 min. von Frey filaments were used to quantify the lowest mechanical threshold required for a brisk paw withdrawal reflex. The force was applied to the plantar surface of the left hindpaw and held until the filament buckled slightly. The absence of a response after 5 s prompted application of the next filament of increasing force. Filaments available for use included those that produced a buckling weight of 2, 4, 5, 6, 8, 10, 12, 14, 16, and 18 g. Filaments were calibrated daily before undertaking antinociceptive testing. […] Pre-drug (opioid or saline) responses were the mean of three readings taken ≈5 min apart. Assessment of von Frey filament responsiveness was determined at the following times post-opioid (or saline) administration: 15, 30, 45, 60, 90, 120 and 180 min.
The von Frey scores for individual rats were converted to the Percentage of the Maximum Possible Antinociceptive Effect (% MPE), according to the formula: [formula]
The mean (±SEM) percentage maximum AUC (% Max AUC) was calculated according to the following formula: [formula]
ED50 estimation was facilitated by the inclusion of theoretical maximum and minimum % Max AUC values.
This study comprised three groups of STZ-diabetic DA rats. […] Subsequent doses were chosen to facilitate construction of dose-response curves for the alleviation of tactile allodynia. Antinociception was quantified using calibrated von Frey filaments.

[2] = system: naïve control non-diabetic DA rats; assay: von Frey antinociception after single s.c. opioid in control non-diabetic DA rats; type: in vivo, rat; details: morphine s.c.
Procedure: as §1
Mechanical allodynia, the distinguishing feature of diabetic neuropathic pain, was quantified using von Frey filaments. Rats were placed in a metabolic cage (20 cm×20 cm×20 cm) with a metal mesh floor and allowed to acclimatise for approximately 10 min. von Frey filaments were used to quantify the lowest mechanical threshold required for a brisk paw withdrawal reflex. The force was applied to the plantar surface of the left hindpaw and held until the filament buckled slightly. The absence of a response after 5 s prompted application of the next filament of increasing force. Filaments available for use included those that produced a buckling weight of 2, 4, 5, 6, 8, 10, 12, 14, 16, and 18 g. […] Pre-drug (opioid or saline) responses were the mean of three readings taken ≈5 min apart. Assessment of von Frey filament responsiveness was determined at the following times post-opioid (or saline) administration: 15, 30, 45, 60, 90, 120 and 180 min. […]
The mean (±SEM) percentage maximum AUC (% Max AUC) was calculated according to the following formula: [formula] […]

CN1CC[C@]23c4c5ccc(O)c4O[C@H]2[C@@H](O)C=C[C@H]3[C@H]1C5 [morphine]
antinociceptive efficacy/potency ([1]; 12 wks post-STZ, standard chow, s.c.): completely abolished | rightward shift in the dose-response curve versus non-diabetic rats ([1]; by 3 wks post-STZ): ≈ 2.5 fold | decrease in potency relative to weight-matched control non-diabetic rats ([1]; by 9 wks post-STZ): ≈ 2 fold | increase in extent and duration of antinociception (AUC) versus 14-wk STZ-diabetic rats on standard chow ([1]; morphine 6.1 mg/kg s.c., 4 wks dietary L-arginine (Group 2)): 21 fold | % MPE AUC (±SEM) ([1]; morphine 6.1 mg/kg s.c., 9 wks post-STZ, standard chow): 63.4±7.5 % MPE-h | % MPE AUC ([1]; morphine 6.1 mg/kg s.c., 14 wks post-STZ, standard chow): 5.2±2.5 % MPE-h | % MPE AUC (±SEM) ([1]; morphine 6.1 mg/kg s.c., 16 wks post-STZ, 7 wks dietary L-arginine (Group 1)): 101.9 (±1.9) % MPE-h | % MPE AUC ([1]; morphine 6.1 mg/kg s.c., 18 wks post-STZ, 4 wks dietary L-arginine (Group 2)): 109.8±28.6 % MPE-h | % MPE AUC (±SEM) ([1]; morphine 6.1 mg/kg s.c., 20 wks post-STZ, 11 wks dietary L-arginine (Group 1)): 119.2 (±19.1) % MPE-h | % MPE AUC ([1]; morphine 6.1 mg/kg s.c., 22 wks post-STZ, 8 wks dietary L-arginine (Group 2)): 149.5±9.5 % MPE-h | % MPE AUC ([1]; morphine 6.1 mg/kg s.c., 34 wks post-STZ, 4 wks dietary L-arginine (Group 3)): 62.2±15.8 % MPE-h | % MPE AUC ([1]; morphine 6.1 mg/kg s.c., 38 wks post-STZ, 8 wks dietary L-arginine (Group 3)): 117.1 (±15.4) % MPE-h | % MPE AUC after 8 wks relative to 4 wks of L-arginine (larger by) ([1]; morphine 6.1 mg/kg s.c., Group 3): approximately 190% | % MPE AUC [2]: 136.9±16.1 % MPE-h
